± gives the standard deviation of the averaged measurements. The effect of the compound repeats well; differences between the knockouts mostly do not.
Tested on: ZR-75-1
Assay: relative cell number vs DMSO control (72 h) (% of DMSO); higher = less growth inhibition (more cells)
Method: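 QMAP-Seq: a pool of 5 breast cancer cell lines (ZR-75-1, SKBR3, HCC-38, MDA-MB-231, BT-20), each carrying 12 doxycycline-inducible Cas9 sgRNA perturbations (11 knockouts plus non-targeting sgNT), was treated with compounds for 72 h at four 10-fold doses (10 nM-10 uM or 1 nM-1 uM range). Barcodes were amplified and sequenced, and cell number was interpolated from 293T spike-in standard curves. The result is expressed as % of the median of DMSO wells. Two biological replicates.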

[1] = sgRNA knockout: sgATF3, 1000 nM
[2] = sgRNA knockout: sgATF3, 10000 nM
[3] = sgRNA knockout: sgATF4, 1000 nM
[4] = sgRNA knockout: sgATF4, 10000 nM
[5] = sgRNA knockout: sgATF6, 1000 nM
[6] = sgRNA knockout: sgATF6, 10000 nM
[7] = sgRNA knockout: sgATG7, 1000 nM
[8] = sgRNA knockout: sgATG7, 10000 nM
[9] = sgRNA knockout: sgERN1, 1000 nM
[10] = sgRNA knockout: sgERN1, 10000 nM
[11] = sgRNA knockout: sgHSF2, 1000 nM
[12] = sgRNA knockout: sgHSF2, 10000 nM
[13] = sgRNA knockout: sgNFE2L2, 10 nM
[14] = sgRNA knockout: sgNFE2L2, 100 nM
[15] = sgRNA knockout: sgNFE2L2, 1000 nM
[16] = sgRNA knockout: sgNFE2L2, 10000 nM
[17] = sgRNA knockout: sgSLC35F2, 10 nM
[18] = sgRNA knockout: sgSLC35F2, 100 nM
[19] = sgRNA knockout: sgSLC35F2, 1000 nM
[20] = sgRNA knockout: sgSLC35F2, 10000 nM
[21] = sgRNA knockout: sgXBP1, 1000 nM
[22] = sgRNA knockout: sgXBP1, 10000 nM

SMILES	relative cell number (sgRNA knockout: sgATF3, 10 nM)	relative cell number (sgRNA knockout: sgATF3, 100 nM)	relative cell number [1]	relative cell number [2]	relative cell number (sgRNA knockout: sgATF4, 10 nM)	relative cell number (sgRNA knockout: sgATF4, 100 nM)	relative cell number [3]	relative cell number [4]	relative cell number (sgRNA knockout: sgATF6, 10 nM)	relative cell number (sgRNA knockout: sgATF6, 100 nM)	relative cell number [5]	relative cell number [6]	relative cell number (sgRNA knockout: sgATG7, 10 nM)	relative cell number (sgRNA knockout: sgATG7, 100 nM)	relative cell number [7]	relative cell number [8]	relative cell number (sgRNA knockout: sgERN1, 10 nM)	relative cell number (sgRNA knockout: sgERN1, 100 nM)	relative cell number [9]	relative cell number [10]	relative cell number (sgRNA knockout: sgHSF2, 10 nM)	relative cell number (sgRNA knockout: sgHSF2, 100 nM)	relative cell number [11]	relative cell number [12]	relative cell number [13]	relative cell number [14]	relative cell number [15]	relative cell number [16]	relative cell number [17]	relative cell number [18]	relative cell number [19]	relative cell number [20]	relative cell number (sgRNA knockout: sgXBP1, 10 nM)	relative cell number (sgRNA knockout: sgXBP1, 100 nM)	relative cell number [21]	relative cell number [22]
Cc1ccc(F)c(NC(=O)Nc2ccc(-c3cccc4[nH]nc(N)c34)cc2)c1 [Linifanib]	96 ± 11	102 ± 15	106 ± 18	27.5 ± 14	95.1 ± 39	133 ± 9.5	98.4 ± 5.9	44.3 ± 12	100 ± 26	143 ± 5.1	106 ± 38	35.9 ± 2.4	91.8 ± 26	130.9 ± 0.16	114 ± 92	30.2 ± 5.8	105 ± 6.4	115 ± 12	103 ± 17	38.5 ± 6.3	104 ± 19	105 ± 7.3	128 ± 1.4	32.1 ± 1.1	88.7 ± 26	106 ± 2	83.4 ± 41	25.3 ± 0.89	89.3 ± 23	107 ± 18	122 ± 59	26.4 ± 16	115 ± 26	98.8 ± 4.1	89.1 ± 24	32.2 ± 7.3
C[C@]1(O)C[C@@H](c2nc(-c3ccc4ccc(-c5ccccc5)nc4c3)c3c(N)nccn32)C1 [Linsitinib]	127 ± 28	70.5 ± 17	68.2 ± 9.7	71.9 ± 15	115 ± 20	119 ± 1.4	76.8 ± 16	78.7 ± 6.1	83.5 ± 1.4	101 ± 20	62.7 ± 12	57.5 ± 2.4	93 ± 10	71.1 ± 5.1	57.5 ± 3.3	69.2 ± 5.9	92.2 ± 41	70.6 ± 14	55.5 ± 11	73.4 ± 7.7	94.7 ± 3.4	89.9 ± 4.2	70.5 ± 22	81.21 ± 0.42	117 ± 52	102 ± 16	80.8 ± 4.3	77.7 ± 20	114 ± 26	129 ± 19	59.8 ± 3.9	66.7 ± 18	97.1 ± 30	93.2 ± 20	58 ± 4	68.8 ± 8.3
Cc1ccc(NC(=O)c2ccc(CN3CCN(C)CC3)cc2)cc1Nc1nc(-c2cccnc2)cs1 [Masitinib]	124 ± 8.4	91.6 ± 7.6	93.9 ± 14	31.7 ± 2.1	78.3 ± 20	89.5 ± 10	84.7 ± 5.9	29.7 ± 2	86.5 ± 5.6	108 ± 30	81 ± 6.3	21.7 ± 6.9	86.5 ± 20	124 ± 41	65.3 ± 7.2	20.5 ± 3.1	93.7 ± 8.5	84.8 ± 9	67.6 ± 31	27 ± 2	103 ± 23	95.8 ± 1.3	96.1 ± 2.4	27 ± 1.1	77.3 ± 18	84.1 ± 9	89.7 ± 20	20.2 ± 5.9	108 ± 16	73.4 ± 5.3	85 ± 28	17.7 ± 2.7	95.4 ± 7.3	73.6 ± 9.2	69.7 ± 18	24.6 ± 4.8
